Data as given in PubChem BioAssay AID1259424 (University of Nebraska Medical Center, 2018).
Aim: 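Rank knockdowns across the genome by resemblance to the KSR1 depletion profile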 (primary screen). Cell system: human HCT116 colon cancer cells. Knock-down reagent: siRNA pool against human genes, 50 nM. Measured: 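Log2 levels of six mRNAs (branched-DNA multiplex), adjusted by two reference genes and the non-targeting median, then scored against the average KSR1 knockdown pattern as Pearson r and euclidean distance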. Scale: mean correlation with KSR1 profile: higher = expression change more like KSR1 knockdown.
In all, the deposit lists about 14,000 reagents; below is a random part of them. 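Higher correlation or smaller distance means closer resemblance to KSR1 loss; control wells, including KSR1 knockdowns, recur on many plates.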 Not all columns of the deposit are shown. No sequences are given here. The record does not give: the time to read-out.

gene knocked down | mean correlation with KSR1 profile
KCNA6 (GeneID 3742) | -0.327
PNLIPRP1 (GeneID 5407) | 0.45
TOMM40L (GeneID 84134) | 0.79
MYH15 (GeneID 22989) | -0.412
ATP8B4 (GeneID 79895) | 0.796
DAAM1 (GeneID 23002) | 0.249
HTR2B (GeneID 3357) | -0.232
PCDHB5 (GeneID 26167) | 0.66
BCAM (GeneID 4059) | 0.0368
POLR1B (GeneID 84172) | -0.268
TLR7 (GeneID 51284) | 0.108
RHBDF1 (GeneID 64285) | 0.163
VANGL1 (GeneID 81839) | 0.536
MRPL13 (GeneID 28998) | 0.0376
MFSD11 (GeneID 79157) | -0.344
F10 (GeneID 2159) | -0.264
HNF1A (GeneID 6927) | 0.799
PTPN13 (GeneID 5783) | -0.71
SCNN1A (GeneID 6337) | -0.698
CDK15 (GeneID 65061) | -0.289
ENOPH1 (GeneID 58478) | -0.277
VIPAS39 (GeneID 63894) | 0.188
ZNF189 (GeneID 7743) | -0.5
GCC1 (GeneID 79571) | 0.00825
PDIA4 (GeneID 9601) | -0.0173
KCNT1 (GeneID 57582) | 0.0386
ZMYM6 (GeneID 9204) | -0.317
SELP (GeneID 6403) | 0.535
RAB31 (GeneID 11031) | -0.0263
TBC1D22B (GeneID 55633) | -0.283
PRKAR2B (GeneID 5577) | 0.337
USF1 (GeneID 7391) | 0.353
SGK3 (GeneID 23678) | -0.439
DRD1 (GeneID 1812) | 0.806
WDR26 (GeneID 80232) | -0.367
CLDN9 (GeneID 9080) | -0.408
KRT81 (GeneID 3887) | -0.237
TPP1 (GeneID 1200) | -0.906
CYP24A1 (GeneID 1591) | -0.388
MRPS15 (GeneID 64960) | -0.143
SPEF2 (GeneID 79925) | 0.36
MFAP4 (GeneID 4239) | -0.0963
SEMA6A (GeneID 57556) | 0.425
TACC1 (GeneID 6867) | -0.547
ENOX1 (GeneID 55068) | -0.312
RCN2 (GeneID 5955) | -0.0516
IFNA1 (GeneID 3439) | -0.138
MS4A14 (GeneID 84689) | 0.509
PNMA8B (GeneID 57469) | -0.475
CLIP1 (GeneID 6249) | 0.592

Part of the list above in another layout:
RAB31 (GeneID 11031) | mean correlation with KSR1 profile: -0.0263
TBC1D22B (GeneID 55633) | mean correlation with KSR1 profile: -0.283
PRKAR2B (GeneID 5577) | mean correlation with KSR1 profile: 0.337
USF1 (GeneID 7391) | mean correlation with KSR1 profile: 0.353
SGK3 (GeneID 23678) | mean correlation with KSR1 profile: -0.439
DRD1 (GeneID 1812) | mean correlation with KSR1 profile: 0.806
